Structures are written as SMILES. The list shows a part of the results.

This test is described as follows: agonists of NTR1, primary screen, imaging, U2OS cells, beta-arrestin-GFP, high content (AID 493036) (AID 493036). The conditions noted are these: NTR1-U2OS beta-arrestin-GFP spot imaging, agonist mode; measured here: cell count, cytotoxicity flag; at 20 µM.
As for `CCC(=O)N(c1ccccc1)C1(COC)CCN(CCc2cccs2)CC1`, the cell count came to 60 cells.
On to `CCC(=O)N(c1ccccc1)C1(COC)CCN(CCn2nnn(CC)c2=O)CC1`, for which the cell count came to 53 cells.
Consider `CC(=O)c1ccc(N2CC2c2ccncc2)cc1` (stereo not drawn), for which the cell count is 99 cells.

These data come from PubChem BioAssay AID493036 (Sanford-Burnham Center for Chemical Genomics, 2011).
